The hits were mostly taken out for another list; the other results follow. Calls of active or inactive are those of the source. Calls follow the shape of the dose curve; as a rule, active = well fitted activation curve with a large enough effect; inconclusive = small, poorly fitted or top-dose-only effect; inactive = no such curve, though single readings can be large or run the other way.
Assay: qHTS Assay for Small Molecule Inhibitors of Mitochondrial Division or Activators of Mitochondrial Fusion;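 also: temperature-sensitive fusion mutants such as fzo1-1 at 37 °C on non-fermentable ethanol glycerol medium; % of control where 0% means no effect; nearly all actives have a fitted effect of over 45% in size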
Conditions: S. cerevisiae fusion-defective mutant growth rescue, CellTiterGlo 48 h; at 46.1 µM (top of the series)
Description: NIH Chemical Genomics Center [NCGC] NIH Molecular Libraries Probe Production centers Network [MLPCN] MLPCN Grant: MH081279-01 Assay Submitter (PI): Jodi M. Nunnari NCGC Assay Overview: The budding yeast S. cerevisiae is a powerful system to study mitochondrial fusion. Unlike other organisms, yeast cells without functional mitochondrial DNA (mtDNA) can be propagated and studied as long as they maintain a mitochondrial compartment and are provided with a fermentable carbon source. When mitochondrial fusion is blocked in yeast, mitochondrial tubules rapidly fragment and division continues unopposed. Under conditions where fusion is compromised in mammalian cells, nearly identical changes in mitochondrial structure have been observed. Thus, these findings indicate that steady state mitochondrial structure in cells is a characteristic and specific indicator of fusion activity. […] We have developed and optimized a luminescence cell viability assay in 1536 well format for the identification of inhibitors in the yeast mitochondrial fusion-defective assay.
The yeast glycerol stocks where kindly supplied by the laboratory of Dr. Jodi Nunnari, University of California, Davis. […] The CellTiterGlo luminescence reagent, containing luciferase and luciferin, were purchased from Promega, and the reagents were stored according to manufacturer's instructions. […] 7.#Read using bio-luminescence protocol on Viewlux.

SMILES | growth rescue (activation)
O=C1CC(c2ccccc2)Oc2cc(O)ccc21 (stereo unspecified) | inactive: -40.7%

From PubChem BioAssay AID485298 (National Center for Advancing Translational Sciences (NCATS), 2010)
